Results on 107 sequences are retold here after PubChem BioAssay AID1508600 (Functional Genomics Laboratory (NCATS/FGL), 2020).

Among all 53,000 sequences or so, about 3,700 (7%) were called active.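 How the source made its calls: active means gene knockdowns whose robust z-score for IL-1 alpha signal is at least 2 or at most -2, so actives lie on both sides; inactive means the rest.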 The list shows a part of the results.

This assay in a line: Components of the Cytosolic LPS Sensing Pathway: Gene Identification via Genome-wide siRNA Screen.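 Further: robust z of the log signal after scaling to non-targeting control siRNA wells of the plate.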 As to conditions: RAW264.7 macrophages, IL-1a HTRF, actives lie on both sides, screened at 100 nM (by protocol), cells primed 5 h with Pam3CSK4 first. In a few lines:
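Three distinct siRNAs per gene were tested singly at 100 nM in RAW264.7 macrophages. Following Pam3CSK4 priming and 24 hour LipidA transfection, IL-1a secretion was read by HTRF.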
Take GGAUCGACAGCAUCAUUCUTT against Pea15b: the z-score is inactive: -0.624.

As to GCUAGAAAAUCUCUCCAACTT against Cnn2, the z-score was inactive: -0.551.

AUACCCAACACCUAGUAACTT against Sval3: the z-score is inactive: -0.794.

As for GGCCUAGAAAGGAAUGAUATT against Nufip2, the z-score was inactive: -0.725.

Consider GGUGGAUUCUAGCUUGUCGTT against Dusp10, for which the z-score was inactive: 0.883.

For the sequence GGAUGACACAACUAUGACATT against Lmbr1, the z-score was inactive: -0.188.

Regarding UCUGGGUGUAAUGAAGGAGTT against Ces2b, the z-score was inactive: 0.786.

With CGGUAGAAGGCUUAGGCAATT against Aox1, the z-score is inactive: -0.922.

Turning to GGAACACAGAGAAUACAAATT against Sdccag8, the z-score was inactive: 1.06.

As for GCAUGUUGAAAUCAAUUGATT against Cacnb4, the z-score was inactive: 0.595.

Turning to GGAGCUUUGCUUAGCACUGTT against Ccdc85b, the z-score is inactive: -1.27.

For the sequence GGCCUAACAGAACUGUGAGTT against P2ry2, the z-score is inactive: -0.611.

GCUAUGAUCGAUCAAAUUCTT against Hexdc: the z-score was inactive: 0.604.

For GGACAUGGAUUUCAUCAUGTT against Slc35a5, the z-score was inactive: 0.154.

CCAAGUAUGAGGAACGAGUTT against Creb3l3: the z-score is inactive: -0.443.

Turning to GGCAAGUCCUAGUUUUGUUTT against Ackr1, the z-score was inactive: -1.65.

GCCUUGAUAAUUUUGUAAGTT against Gimap9: the z-score was inactive: 0.533.

Take CCCAUGACCUAUGUUGUAGTT against Xpc: the z-score is inactive: -0.473.

For the sequence CCCACUGCAUUACUCACUCTT against Olfr873, the z-score was inactive: -1.01.

As for GCGUGAGAAAACCUUGGAUTT against Tas2r115, the z-score was inactive: 0.342.

With GGAGAAGGACCAUCUAAAGTT against Cmah, the z-score was inactive: 0.901.

As to GGCAUACCGUAAAAGUGGCTT against Olfr73, the z-score was inactive: -1.95.

As for GCCAGUUGACUCUUCUUUATT against Zbtb44, the z-score is inactive: -0.238.

For the sequence GGAUUCAUAGACUUCAUAGTT against Impdh1, the z-score is inactive: 0.608.

In the case of GGAACCAAUCCACCUGAUUTT against Tas2r136, the z-score is inactive: 0.402.

For the sequence GGACUUCUAUGAUUGGCUGTT against Por, the z-score was inactive: 1.02.

As for GGUAGCUGUCAACAAGGCATT against Akt2, the z-score is inactive: 0.409.

Regarding GGCUAACCCUUUCAAGGAGTT against Cib1, the z-score is inactive: -1.08.

With GGAGUUUGGGAACACUUUGTT against Apoc1, the z-score was inactive: 0.617.

As to GGCUGACCUAAAGAAGGAGTT against Cnot3, the z-score is inactive: -0.725.

With GGAGUUCACCAGCUACCAATT against Myoz3, the z-score was inactive: -0.537.

Regarding CCUGAAGCCUCAAUACACATT against Ugt1a1, the z-score was inactive: 0.967.

In the case of CGAGGAUGCUUUUUAAAAATT against Inip, the z-score is inactive: -0.0653.

On to GGUGUUGUAUUCAGGCUGGTT against Slc41a1, for which the z-score was inactive: -0.397.

As for GCUGAUAAAGUUUUUGUCUTT against Tas2r104, the z-score was inactive: -0.17.

As to GCAUUAUGGAAAGUUGGAGTT against Gabra4, the z-score is inactive: 0.915.

CCUUGAUGGAUGUUACCAATT against Asah1: the z-score is inactive: 0.12.

GGCUAUGAGUUUUUCUAUUTT against Sart3: the z-score is inactive: -0.738.

Consider CGAAAUUUAACUUGAACAGTT against Toporsl, for which the z-score is inactive: 0.659.

Take GGGAACACAGCUAUUUCCUTT against Olfr808: the z-score was inactive: 1.32.

In the case of GGAUCCAAGGCAAAGAUGUTT against Fto, the z-score is inactive: 1.73.

With GCAACAUGAAGAUAAGUGCTT against Zbtb1, the z-score was inactive: 0.384.

As for GGGUUAGGUUUUGAUGUAATT against Abhd5, the z-score was inactive: -0.271.

With GGUCUUACGCAAAACGGUCTT against Csf1r, the z-score is active: 2.86.

On to GGCUAUUUCUUUUUAUGCUTT against Ak4, for which the z-score is inactive: 0.911.

With GGAAGAAAUUCGAUGAUGATT against Mcrs1, the z-score is inactive: -1.59.

As for GGUAAAGAGCAGUGAUAUCTT against Pls3, the z-score was inactive: 0.663.

Take CGAUUCAUUCAGUUUGUAATT against Terb1: the z-score is inactive: -0.631.

Regarding GGACCUCAAGGCACUAAUATT against Car7, the z-score was inactive: 0.385.

As for GAAAGAACUGUGGCUUCCCTT against Tff2, the z-score was inactive: 1.35.

In the case of CGCAGAAACACAGUCCACATT against Cntfr, the z-score is inactive: 0.714.

With CCCUCACAGCGACUUUAACTT against Prr15l, the z-score is inactive: 0.0331.

On to CCUUCUCCAUGUCAGAUCUTT against Col5a2, for which the z-score was inactive: 0.23.

As to GGAUCCAUUGAGCUCUGUCTT against Poln, the z-score is inactive: -1.37.

For GGUGCAAAUGUUCUCAUCUTT against Mfsd4b1, the z-score is active: 2.11.

For the sequence GGUGUGAGUGUCGGAAUCUTT against Islr2, the z-score is inactive: 0.138.

On to GGAAUUUGGAAAGAUCUAUTT against Gm4876, for which the z-score was inactive: 0.111.

As for GGCCUGUUCUGAAGAACUATT against Gp2, the z-score is inactive: -0.115.

Turning to GCAUCCUUCUGAGUUGAUGTT against Tollip, the z-score is inactive: -1.02.

Turning to GGAGAGAGCUCAGGAAUGATT against Rpp25, the z-score is inactive: 0.544.

On to GGGAACAAACCUUGAUUCUTT against Adam24, for which the z-score is active: 3.49.

In the case of GCUGAUUGAACUGAAUGGATT against Slc22a21, the z-score was inactive: -1.27.

For CGGAGAAGUCACCAAUACUTT against Tll1, the z-score is inactive: -0.0687.

With GGUUCUGAACACAUUUCCATT against Cyp2d13, the z-score was inactive: -1.07.

Take GGUACUAACACCACAAAAATT against Cep83: the z-score is inactive: -0.757.

For GGAACGAUGAGGAAAUCUCTT against Clcc1, the z-score was inactive: 0.537.

Turning to GGAGAACCCAUUCAAGUCCTT against Zfp280b, the z-score was inactive: -0.699.

For the sequence GGCUUCCAGAUGGACGAGATT against Prkag3, the z-score was inactive: -1.35.

On to GGAUGAAGAUGAAAAAGAUTT against Hoxc9, for which the z-score is inactive: -0.247.

Turning to CCUCUAUAAAUAGCAUAGUTT against Olfr860, the z-score is inactive: -1.06.

For GCCUAUCUACUGACCUUUGTT against Styxl1, the z-score is inactive: 0.383.

GGAAGGAAGAGAAUAAGCGTT against Tent2: the z-score was inactive: 0.431.

Take CCUUUUGAUAGUGAUGGUCTT against Olfr735: the z-score was inactive: -0.673.

In the case of GGUGAACAUUGACCACUUCTT against Rgs5, the z-score was inactive: -1.47.

As to GCUUCGGCCUCAGUAUUCATT against Pigb, the z-score is inactive: 0.0355.

For the sequence GGAAAAACUUGACUUACAATT against Bhlha15, the z-score was inactive: 1.97.

Consider GGCUCCGUGAUGCUUCAAGTT against Selenbp2, for which the z-score is inactive: 1.15.

Consider GGCCUAUAGGUUGGGCUCUTT against Tonsl, for which the z-score is active: -2.57.

Take GGUCCAGGUGACAAUAAAUTT against Tmem143: the z-score is inactive: -1.78.

Consider GGUUGAUAGGCCAAAUUGUTT against Tuba1a, for which the z-score is inactive: 0.0575.

GCCUCUAACAAAACUAGGCTT against Rpl34: the z-score is inactive: 0.624.

GCUUUAAACUGAGUGAUAATT against Zfp451: the z-score is inactive: -0.564.

With GGGAAUCUAAAUUAUUCUGTT against Mfsd1, the z-score is inactive: -0.202.

Turning to GCAUGUAGCCUGGCCUUCUTT against Zfp458, the z-score is inactive: -0.591.

On to GGUUUCGUCUGUUCCUUAATT against Dxo, for which the z-score was inactive: 1.45.

Turning to GGCCUCUAUCUUCCAACAATT against Tent4a, the z-score was active: -2.06.

Regarding GGCUUUAGUUAGAACGGGUTT against Pttg1, the z-score is inactive: 1.46.

Take GGUGAUUUCACUGGGUAAGTT against Olfr632: the z-score was inactive: 1.72.

With GGAGUCCUACGUCAAAGAATT against Pigz, the z-score is inactive: -0.251.

GCCUGUCUGCCACUUACAATT against St8sia3: the z-score is inactive: 1.22.

As to CCUGGAUCAUAUAAUAGAGTT against Dffb, the z-score is inactive: -0.237.

As for GCAUUUUAGACUCAGAAUCTT against Car3, the z-score is inactive: -0.047.

Take “GGAGAAGGUGACUUAAUAGTT against 9430077A04Rik”: the z-score is inactive: 0.76.

As to GCUGUACGUAGAUUCCAGATT against Mmp21, the z-score was inactive: 1.48.

GGCAGUAAUAGGAGACCAUTT against Ces1d: the z-score was active: 2.76.

Turning to GGUUGAAAACUAAGAACUCTT against Pglyrp2, the z-score was inactive: 0.791.

For the sequence GGCGUGGUUUCUGUCUGUUTT against Ip6k1, the z-score was inactive: 0.122.

For CCAUACACAGUAUAAUCAATT against Galntl6, the z-score is inactive: 1.64.

As for GGUGAACAGAAGGACAGAUTT against Gm4736, the z-score is inactive: 0.479.

With “GGAAUUGAGUGGUUGUAUCTT against 4933427D14Rik”, the z-score was inactive: -0.264.

Take GCACUACCACUGUCAGCAATT against Ldb3: the z-score was inactive: -0.734.

In the case of GCCCUACUGUCAAAUAGGATT against Pxmp4, the z-score was inactive: 0.678.

As to GGCAACACUUAAGCCUGAGTT against Proser3, the z-score is inactive: -1.53.

Consider GGCAGAUCCAAGGCUAUUATT against Olfr901, for which the z-score is inactive: -0.119.

For the sequence CCCAACAAAAUGCAUCAAUTT against Nrg3, the z-score was inactive: 0.211.

GGAAGAUUAUAAAAACAGGTT against Togaram1: the z-score was inactive: -0.57.

As for GGUCAAGACAAUCUGAUCATT against St3gal3, the z-score was inactive: -1.52.
